# Results reported in the supplement of paper PMC12067093, “Discovery and optimisation of a covalent ligand for TRIM25 and its application to targeted protein ubiquitination” (Chemical Science, 2025).
# The list shows a part of the results.
# Legend:
# [1] = target: CLIC1_O00299_191_LHIVQVVCK (UniProt O00299); experiment: probe-labelled cysteine peptide fold change vs DMSO (competition) (log2 fold change); higher = less target engagement (more negative = stronger competition); conditions: THP-1, incubation time: 4 h
# [2] = target: CLIC1_O00299_191_LHIVQVVCKK (UniProt O00299); experiment: as above; conditions: THP-1, incubation time: 4 h
# 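Note: competitive profiling in live THP-1 cells: cysteine peptides tagged with an iodoacetamide desthiobiotin (IA-DTB) probe, intensity after compound treatment relative to DMSO-treated cells.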
smiles,measurement,setting,value
Cc1cc(C(=O)N2CCCN(C(=O)CCl)CC2)ccc1-c1ccccc1 [compound 10],probe-labelled cysteine peptide fold change,[1]; 10 µM,-0.167
same,probe-labelled cysteine peptide fold change,[1]; 50 µM,-0.106
same,probe-labelled cysteine peptide fold change,[2]; 10 µM,-0.224
same,probe-labelled cysteine peptide fold change,[2]; 50 µM,-0.78
